# From article PMC7891725, “Shared and distinct roles of Esc2 and Mms21 in suppressing genome rearrangements and regulating intracellular sumoylation” (PLoS ONE, 2021)
# These are yes or no findings as the source states them, for the method shown. Where a sequence is shown, tags or fusion partners need not be part of it.
# T1: N-terminal Protein-A tagged Esc2-D430R (S. cerevisiae) (UniProt Q06340)
# T1 sequence: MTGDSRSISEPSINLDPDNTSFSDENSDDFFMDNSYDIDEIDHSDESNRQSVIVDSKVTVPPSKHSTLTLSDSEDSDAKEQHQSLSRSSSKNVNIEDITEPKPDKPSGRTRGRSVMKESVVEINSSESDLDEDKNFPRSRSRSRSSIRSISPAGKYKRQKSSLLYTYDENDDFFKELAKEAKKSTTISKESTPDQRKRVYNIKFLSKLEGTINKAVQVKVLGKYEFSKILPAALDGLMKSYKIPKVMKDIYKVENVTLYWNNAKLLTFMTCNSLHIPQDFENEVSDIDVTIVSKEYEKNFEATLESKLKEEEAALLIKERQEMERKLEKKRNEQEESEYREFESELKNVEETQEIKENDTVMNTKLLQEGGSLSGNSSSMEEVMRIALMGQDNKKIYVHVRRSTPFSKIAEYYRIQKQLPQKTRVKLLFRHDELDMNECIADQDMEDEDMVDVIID
# B1: C-terminal 6xHIS tagged Ubc9 (enzyme, S. cerevisiae, UniProt P50623 1-157, looked up)
# chain: MSSLCLQRLQEERKKWRKDHPFGFYAKPVKKADGSMDLQKWEAGIPGKEGTNWAGGVYPITVEYPNEYPSKPPKVKFPAGFYHPNVYPSGTICLSILNEDQDWRPAITLKQIVLGVQDLLDSPNPNSPAQEPAWRSFSRNKAEYDKKVLLQAKQYSK
# notes: Ubc9, SUMO E2 conjugating enzyme, S. cerevisiae; also called Ubc9 SUMO conjugating enzyme; E2
# Target: T1, N-terminal Protein-A tagged Esc2-D430R (S. cerevisiae)
# Test: condition: 100 μg of purified Ubc9 in a final volume of 200 μL; pull-down; 40 ug Protein-A-Esc2 (WT or D430R) bound to 20 uL IgG resin, incubated with 100 ug purified Ubc9 in 200 uL for 2 hours on ice; washed 5 times with PBS with 0.2% NP-40; bound Ubc9 eluted and seen by Coomassie staining; both purified
binder,measurement,value
B1,binding,no binding
